# Test results taken from PubChem BioAssay AID1671190 (National Center for Advancing Translational Sciences (NCATS), 2021).
# Chains of the proteins cited; added tags and fusions are not shown. Lines headed by an entry give the natural chain unless they say otherwise; changes in a name come on top.
# UniProt P18054: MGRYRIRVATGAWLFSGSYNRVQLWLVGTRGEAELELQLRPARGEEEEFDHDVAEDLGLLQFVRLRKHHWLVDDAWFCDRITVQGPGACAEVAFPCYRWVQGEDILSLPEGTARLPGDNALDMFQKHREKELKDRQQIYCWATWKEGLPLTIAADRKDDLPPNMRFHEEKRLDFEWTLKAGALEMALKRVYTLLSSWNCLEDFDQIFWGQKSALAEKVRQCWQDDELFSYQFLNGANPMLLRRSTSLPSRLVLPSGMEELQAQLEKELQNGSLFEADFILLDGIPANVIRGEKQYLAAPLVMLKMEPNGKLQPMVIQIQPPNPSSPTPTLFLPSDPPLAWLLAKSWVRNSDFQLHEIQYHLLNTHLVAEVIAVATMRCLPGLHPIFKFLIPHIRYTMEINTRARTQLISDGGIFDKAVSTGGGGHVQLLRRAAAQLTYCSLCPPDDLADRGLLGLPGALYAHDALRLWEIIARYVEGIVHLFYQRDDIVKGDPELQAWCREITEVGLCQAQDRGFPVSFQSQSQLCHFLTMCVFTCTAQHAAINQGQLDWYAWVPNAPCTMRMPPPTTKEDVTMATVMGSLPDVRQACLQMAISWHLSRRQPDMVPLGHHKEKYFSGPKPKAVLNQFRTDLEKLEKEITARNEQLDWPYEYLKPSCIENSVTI
# Where “and” joins values, the source holds several entries; their conditions need not be identical. Equal entries are not always repeated. About 6,100 (1.1%) of roughly 580,000 compounds were called active. Inconclusive results, whose numbers are uncertain, are shown with a selection of clear calls. Calls come from the whole dose curve; as a rule, active = well fitted inhibition curve with a large enough effect; inconclusive = small, poorly fitted or top-dose-only effect, or another doubt; inactive = no such curve, though single readings can be large or run the other way. Where the call is inconclusive, the potency comes from a doubtful curve fit.
# Target: Polyunsaturated fatty acid lipoxygenase ALOX12 (Homo sapiens) (UniProt P18054)
# Assay: Primary qHTS assay for inhibitors of human arachidonate 12S-lipoxygenase (ALOX12): Round 2
# Details: purified 12hLO, xylenol orange hydroperoxide absorbance; activity change, negative = inhibition: at 108 µM (top of the series) unless noted
# Procedure, shortened: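 Purified human 12hLO at 150 nM in 25 mM Hepes, 0.01% Triton X-100, pH 7.0, preincubated 15 min at room temperature with compound. Reaction started with 40 uM arachidonic acid, 30 min at room temperature. Hydroperoxide measured by Fe-xylenol orange, 573/405 nm absorbance ratio.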
# % is set by controls: 0 for no effect and ±100 for the full control effect; potency is the fitted concentration of half-maximal effect.
Compound,Potency,"activity change, negative = inhibition"
Cc1ccc(N)c(O)c1,"inconclusive: 17.8 µM [inhibitor, single point]",–
O=C(CN1CC[n+]2c(-c3cccs3)csc21)c1ccc(-c2ccccc2)cc1,"inconclusive: 56.2 µM [inhibitor, partial curve, poor fit]",–
COc1cc(CNCc2ccc(SC)cc2)cc(OC)c1,"inconclusive: 1.58 µM [inhibitor, full curve]",–
COC(=O)[C@@H]1C[C@@]2(O)[C@H](O)[C@H](O)[C@H](O)C[C@H]2N1Cc1cccc2ccccc12,"inconclusive: 44.7 µM [inhibitor, single point]",–
CCOC(=O)c1ccc2nc(C)cc(Nc3ccc(OC(C)C)cc3)c2c1,"inconclusive: 100 µM [inhibitor, partial curve, poor fit] and inconclusive: 50.1 µM [inhibitor, partial curve, poor fit]",–
Cc1ccc(C=Nc2ccccc2C(N)=O)cc1,"inconclusive: 126 µM [inhibitor, single point]",–
CCn1c(C)c(C(C)=O)c2cc(OCC(O)CN3CCCCCC3)ccc21 (stereo not given),"inconclusive: 39.8 µM [inhibitor, partial curve, poor fit]",–
COC1C(=O)N(c2cccc(F)c2)C12CCN(C(=O)c1cccnc1C)CC2 (stereo not given),–,inactive: -8.1%
COC(=O)[C@]1(Cc2ccccc2)N[C@H](CN(C)C(C)=O)[C@@H]2C(=O)N(C)C(=O)[C@@H]21,"inconclusive: 7.08 µM [inhibitor, full curve, poor fit]",–
CC(C)CCNC(=O)c1ccc(CSCc2ccccc2Cl)o1,–,inactive: -14.6%
CC(C)CC(=O)N=C1SC2CS(=O)(=O)CC2N1Cc1ccccc1Cl (stereo not given),"inconclusive: 112 µM [inhibitor, partial curve, poor fit]",–
Cc1nc2ncccn2c1-c1csc(Nc2ccccc2)n1,"inconclusive: 79.4 µM [inhibitor, partial curve, poor fit]",–
CCOC(=O)c1cccc(NS(=O)(=O)c2ccc3[nH]c4c(c3c2)CCCC4)c1,"inconclusive: 112 µM [inhibitor, partial curve, poor fit]",–
C=CCOC(=O)C1=C(C)NC(SCC(=O)Nc2nccs2)=C(C#N)C1c1cccs1 (stereo not given),–,inactive: 41.9%
Cn1cc(CN2CCC(C(=O)Nc3cccc(-c4cccc(F)c4)c3)CC2)cn1,"inconclusive: 126 µM [inhibitor, single point]",–
O=C(Nc1nc2c(s1)CCCC2)C1CC(=O)N(c2n[nH]c3cccc(F)c23)C1 (stereo not given),"inconclusive: 22.4 µM [inhibitor, full curve, poor fit]",–
CC1=C/C(=C\C=C(C#N)C#N)N(C)c2ccccc21,"inconclusive: 251 µM [inhibitor, partial curve, poor fit]",–
CCOc1ccccc1CN1CCC2(CCN(C(=O)C3CCCC3)CC2)Oc2ccccc21,"inconclusive: 22.4 µM [inhibitor, partial curve, poor fit]",–
N#CC1=C(N)NC(=S)C(C(N)=O)C1c1ccccc1F (stereo not given),–,inactive: 0%
CCCC[n+]1c(NCc2cc(Br)cc(Br)c2[O-])[nH]c2ccccc21,–,inactive: -6.8%
CC(=O)N(C)c1ccc(NC(=O)CC2C=CCC2)cc1 (stereo not given),–,inactive: 8.25%
COc1ccc(NC(=O)c2cc(S(=O)(=O)N3CCCCC3)ccc2N2CCCCC2)cn1,"inconclusive: 39.8 µM [inhibitor, partial curve, poor fit]",–

Compound,Potency,"activity change, negative = inhibition"
O=S(=O)(NCc1ccc(Cl)cc1)c1ccc2[nH]c3c(c2c1)CCCC3,"inconclusive: 50.1 µM [inhibitor, partial curve, poor fit]",–
Cc1nc2nc(NCc3cccs3)[nH]n2c(=O)c1CCC(=O)Nc1ccc2ccccc2c1,–,inactive: -23.1%
Cc1ccc(CN(C(=O)Cc2coc3ccc(C(C)C)cc23)C2CCS(=O)(=O)C2)cc1 (stereo not given),–,inactive: -18.7%
COc1ccc2c(c1)CC/C2=N\OC(=O)c1cc(Cl)ccc1SC,"inconclusive: 112 µM [inhibitor, partial curve, poor fit]",–
O=C(C[n+]1ccc(/C=C/c2ccccc2)cc1)c1ccc2c(c1)OCCO2,"inconclusive: 79.4 µM [inhibitor, single point]",–
CCc1ccc(OCC2c3cc(OC)c(OC)cc3CCN2C(=S)NCCOC)cc1 (stereo not given),–,inactive: -20.6%
CNC(=S)N(CCO)Cc1cc2cc3c(cc2[nH]c1=O)OCCO3,"inconclusive: 35.5 µM [inhibitor, partial curve, poor fit]",–
NCc1cccc(-c2cc(C(F)(F)F)ccc2Cl)c1,"inconclusive: 44.7 µM [inhibitor, full curve]",–
O=[N+]([O-])c1cccc(S(=O)(=O)NCc2ccccn2)c1,"inconclusive: 0.631 µM [inhibitor, full curve, poor fit]",–
COc1cccc(OC)c1OC(=O)c1ccc(C#N)cc1,"inconclusive: 50.1 µM [inhibitor, single point]",–
Cc1ccc(-c2nc(C=Nc3ccccc3)c(O)o2)cc1,"inconclusive: 22.4 µM [inhibitor, partial curve, poor fit]",–
COc1ccc(NC(=O)CNS(=O)(=O)c2cccc3nonc23)c(OC)c1,"inconclusive: 17.8 µM [inhibitor, partial curve]",–
COc1ccc(-c2cnc(C)o2)cc1S(=O)(=O)Nc1ccc(F)c(F)c1,"inconclusive: 39.8 µM [inhibitor, partial curve, poor fit]",–
O=C(CN1C(=O)NC2(CCCCCC2)C1=O)Nc1ccc(OC(F)(F)F)cc1,"inconclusive: 50.1 µM [inhibitor, single point]",–
CC(C)C(=O)Nc1nonc1-c1ccc(Br)cc1,–,inactive: 2.74%
COc1ccc(CC2(CO)CCN(Cc3cnc(-c4ccccc4C)nc3)CC2)cc1,"inconclusive: 50.1 µM [inhibitor, partial curve, poor fit]",–
COC(=O)c1sc2ccccc2c1C(=O)OC,–,inactive: 3.69%
COc1ccc(NC(=S)NCCc2ccccc2)c(C)c1,"inconclusive: 44.7 µM [inhibitor, partial curve, poor fit]",–
O=C(CCC1CCCC1)N1CC2CC(C1)[C@H]1CCCC(=O)N1C2 (stereo not given in full),–,inactive: 15.8%
CS(=O)(=O)c1ccc(-c2nn[nH]n2)cc1,"inconclusive: 56.2 µM [inhibitor, partial curve, poor fit]",–
O=C(OCc1ccccc1)N1CCC2CC1c1ccc(/C=C/CCCCl)cc12 (stereo not given),"inconclusive: 112 µM [inhibitor, single point]",–
COCCCNC(=S)N1CCN(C)CC1,"inconclusive: 2.82 µM [inhibitor, full curve, poor fit]",–

# A draw from above in order of formula weight, falling:
Compound,Potency,"activity change, negative = inhibition"
CCc1ccc(OCC2c3cc(OC)c(OC)cc3CCN2C(=S)NCCOC)cc1 (stereo not given),–,inactive: -20.6%
Cc1ccc(CN(C(=O)Cc2coc3ccc(C(C)C)cc23)C2CCS(=O)(=O)C2)cc1 (stereo not given),–,inactive: -18.7%
COc1ccc(CC2(CO)CCN(Cc3cnc(-c4ccccc4C)nc3)CC2)cc1,"inconclusive: 50.1 µM [inhibitor, partial curve, poor fit]",–
O=C(CN1C(=O)NC2(CCCCCC2)C1=O)Nc1ccc(OC(F)(F)F)cc1,"inconclusive: 50.1 µM [inhibitor, single point]",–
COc1ccc(NC(=O)CNS(=O)(=O)c2cccc3nonc23)c(OC)c1,"inconclusive: 17.8 µM [inhibitor, partial curve]",–
COc1ccc(-c2cnc(C)o2)cc1S(=O)(=O)Nc1ccc(F)c(F)c1,"inconclusive: 39.8 µM [inhibitor, partial curve, poor fit]",–
O=C(C[n+]1ccc(/C=C/c2ccccc2)cc1)c1ccc2c(c1)OCCO2,"inconclusive: 79.4 µM [inhibitor, single point]",–
CNC(=S)N(CCO)Cc1cc2cc3c(cc2[nH]c1=O)OCCO3,"inconclusive: 35.5 µM [inhibitor, partial curve, poor fit]",–
O=C(CCC1CCCC1)N1CC2CC(C1)[C@H]1CCCC(=O)N1C2 (stereo not given in full),–,inactive: 15.8%
CC(C)C(=O)Nc1nonc1-c1ccc(Br)cc1,–,inactive: 2.74%
COc1ccc(NC(=S)NCCc2ccccc2)c(C)c1,"inconclusive: 44.7 µM [inhibitor, partial curve, poor fit]",–
O=[N+]([O-])c1cccc(S(=O)(=O)NCc2ccccn2)c1,"inconclusive: 0.631 µM [inhibitor, full curve, poor fit]",–
NCc1cccc(-c2cc(C(F)(F)F)ccc2Cl)c1,"inconclusive: 44.7 µM [inhibitor, full curve]",–
COC(=O)c1sc2ccccc2c1C(=O)OC,–,inactive: 3.69%
COCCCNC(=S)N1CCN(C)CC1,"inconclusive: 2.82 µM [inhibitor, full curve, poor fit]",–
CS(=O)(=O)c1ccc(-c2nn[nH]n2)cc1,"inconclusive: 56.2 µM [inhibitor, partial curve, poor fit]",–

# Further records follow:

Compound,Potency,"activity change, negative = inhibition"
CCOc1cccc(NC(=O)c2sc3nc(-c4ccc(F)cc4)ccc3c2N)c1,"inconclusive: 44.7 µM [inhibitor, full curve, poor fit]",–
COc1cccc(-c2ccc(=O)n(CC(=O)N3CCc4cc(OC)c(OC)cc4C3)n2)c1,"inconclusive: 100 µM [inhibitor, partial curve, poor fit]",–
Oc1ccccc1Nc1nc(NCC2CCCO2)c2ccccc2n1 (stereo not given),"inconclusive: 44.7 µM [inhibitor, partial curve, poor fit]",–
Cc1onc(-c2ccccc2)c1C(=O)NC1CCCCC1C (stereo not given),"inconclusive: 79.4 µM [inhibitor, single point]",–
COc1cccc(N2CCN(CC(=O)N3CCN(S(=O)(=O)c4ccc(Cl)cc4)CC3)CC2)c1,–,inactive: -22.4%
CCCNC(=O)N[C@@H]1CCC[C@@H](C(=O)NCc2cc(C)on2)CC(=O)N(C)C1,"inconclusive: 50.1 µM [inhibitor, partial curve]",–
CCOCN(C(=O)Cn1cnc2ccccc21)c1c(C)cccc1CC,–,inactive: -8.11%
CCONC(=O)C(C)Oc1cccc(C#N)c1 (stereo not given),"inconclusive: 63.1 µM [inhibitor, partial curve, poor fit]",–
C#CCNC(=O)CN1CCCC1C(=O)NCC(F)(F)F (stereo not given),"inconclusive: 17.8 µM [inhibitor, full curve, poor fit]",–
O=C(c1ccccc1)N1CCCC(c2nc3c(nnn3Cc3ccc(F)cc3F)c(=O)[nH]2)C1 (stereo not given),"inconclusive: 112 µM [inhibitor, partial curve, poor fit]",–
COC(=O)c1cccc(C(=O)N2CCC(Cc3nc(-c4ccc(OC)cc4)no3)CC2)c1,–,inactive: 12.1%
CCC(=O)c1ccc(OCC(=O)OCC(=O)c2cc(C)n(CC3CCCO3)c2C)cc1 (stereo not given),–,inactive: 17.5%
Cc1ncc(-c2ccc(S(=O)(=O)Nc3ccccc3C)cc2)o1,–,inactive: 1.89%
CCc1cc(=O)n(CC(=O)Nc2ccc3c(c2)OCCO3)c(-n2nc(C)cc2C)n1,–,inactive: 18.6%
CCn1cc(C(=O)O)c(=O)c2cnc(N3CCN(C(=S)Nc4ccccc4Cl)CC3)nc21,–,inactive: -25.4%
CC(C)CNC(=O)COc1ncnc2ccc(Br)cc12,–,inactive: 9.47%
Cc1cn([C@H]2C[C@H](O)[C@@H](CCC(=O)NCCc3cnc[nH]3)O2)c(=O)[nH]c1=O,"inconclusive: 17.8 µM [inhibitor, partial curve, poor fit]",–
O=C(Cc1cccs1)NNC(=S)NC(=O)c1ccc(F)c(F)c1,"inconclusive: 14.1 µM [inhibitor, partial curve, poor fit]",–
CCOC(=O)C1=C(C)N(C)C(=O)NC1c1cc2c(cc1[N+](=O)[O-])OCO2 (stereo not given),"inconclusive: 50.1 µM [inhibitor, partial curve, poor fit]",–
CCOc1cc(C=O)ccc1OCc1ccc(C(=O)O)cc1,"inconclusive: 3.98 µM [inhibitor, full curve]",–
CCOC(=O)N1CCN(C(c2ccnc3ccccc23)c2nnnn2-c2c(C)cccc2C)CC1 (stereo not given),"inconclusive: 141 µM [inhibitor, single point]",–
